{"source": "the supplement of paper PMC10032668", "test_in_all_cases": "PRISMA enrichment of interactor (LFQ) in peptide spot vs all other peptide spots (log2 fold change); higher = stronger / more specific binding of the interactor to the peptide", "key": {"C2CD3, Q4AC94": {"biological_target": "C2CD3, Q4AC94", "procedure": "(§1)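 PRISMA: 15-aa overlapping tiles (offset 8 aa) of 60 microproteins, plus SOS1/GLUT1 control peptides, were spot-synthesized on cellulose membranes in triplicate. Membranes were incubated with benzonase-treated HEK293T lysate, and bound proteins were identified by LC-MS/MS with LFQ. Enrichment is the log2 fold change of each protein in one spot versus all other spots. Only interactors passing the significance cutoff are listed.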"}, "CCAR1, Q8IX12": {"biological_target": "CCAR1, Q8IX12", "procedure": "as §1"}, "CFAP36, Q96G28": {"biological_target": "CFAP36, Q96G28", "procedure": "as §1"}, "CNN3, Q15417": {"biological_target": "CNN3, Q15417", "procedure": "as §1"}, "COG5, Q9UP83": {"biological_target": "COG5, Q9UP83", "procedure": "as §1"}, "DNAJB11, Q9UBS4": {"biological_target": "DNAJB11, Q9UBS4", "procedure": "as §1"}, "GTF2I, P78347": {"biological_target": "GTF2I, P78347", "procedure": "as §1"}, "HNRNPH2, P55795": {"biological_target": "HNRNPH2, P55795", "procedure": "as §1"}, "NUP62, P37198": {"biological_target": "NUP62, P37198", "procedure": "as §1"}, "PCBP2, Q15366": {"biological_target": "PCBP2, Q15366", "procedure": "as §1"}, "PTBP3, O95758": {"biological_target": "PTBP3, O95758", "procedure": "as §1"}, "RAB7A, P51149": {"biological_target": "RAB7A, P51149", "procedure": "as §1"}, "SDF2L1, Q9HCN8": {"biological_target": "SDF2L1, Q9HCN8", "procedure": "as §1"}, "SUGT1, Q9Y2Z0": {"biological_target": "SUGT1, Q9Y2Z0", "procedure": "as §1"}, "C7orf50, Q9BRJ6": {"biological_target": "C7orf50, Q9BRJ6", "procedure": "as §1"}, "CD81, P60033": {"biological_target": "CD81, P60033", "procedure": "as §1"}, "CDC20, Q12834": {"biological_target": "CDC20, Q12834", "procedure": "as §1"}, "CSTF3, Q12996": {"biological_target": "CSTF3, Q12996", "procedure": "as §1"}, "DHX15, O43143": {"biological_target": "DHX15, O43143", "procedure": "as §1"}, "EIF3M, Q7L2H7": {"biological_target": "EIF3M, Q7L2H7", "procedure": "as §1"}, "EIF4B, P23588": {"biological_target": "EIF4B, P23588", "procedure": "as §1"}, "EXOC4, Q96A65": {"biological_target": "EXOC4, Q96A65", "procedure": "as §1"}, "GOT2, P00505": {"biological_target": "GOT2, P00505", "procedure": "as §1"}, "INTS7, Q9NVH2": {"biological_target": "INTS7, Q9NVH2", "procedure": "as §1"}, "MRM2, Q9UI43": {"biological_target": "MRM2, Q9UI43", "procedure": "as §1"}, "MRPL16, Q9NX20": {"biological_target": "MRPL16, Q9NX20", "procedure": "as §1"}, "MYO6, Q9UM54": {"biological_target": "MYO6, Q9UM54", "procedure": "as §1"}, "NAP1L1, P55209": {"biological_target": "NAP1L1, P55209", "procedure": "as §1"}, "NUDT21, O43809": {"biological_target": "NUDT21, O43809", "procedure": "as §1"}, "PGAM1, P18669": {"biological_target": "PGAM1, P18669", "procedure": "as §1"}, "RADX, Q6NSI4": {"biological_target": "RADX, Q6NSI4", "procedure": "as §1"}, "S100A13, Q99584": {"biological_target": "S100A13, Q99584", "procedure": "as §1"}, "SREK1, Q8WXA9": {"biological_target": "SREK1, Q8WXA9", "procedure": "as §1"}, "WDR12, Q9GZL7": {"biological_target": "WDR12, Q9GZL7", "procedure": "as §1"}, "YIF1A, O95070": {"biological_target": "YIF1A, O95070", "procedure": "as §1"}, "GSPT2, Q8IYD1": {"biological_target": "GSPT2, Q8IYD1", "procedure": "as §1"}, "MRPL22, Q9NWU5": {"biological_target": "MRPL22, Q9NWU5", "procedure": "as §1"}, "NCAPH, Q15003": {"biological_target": "NCAPH, Q15003", "procedure": "as §1"}, "NUTF2, P61970": {"biological_target": "NUTF2, P61970", "procedure": "as §1"}, "PRPF4, O43172": {"biological_target": "PRPF4, O43172", "procedure": "as §1"}, "SRPRA, P08240": {"biological_target": "SRPRA, P08240", "procedure": "as §1"}, "UBE2I, P63279": {"biological_target": "UBE2I, P63279", "procedure": "as §1"}}, "note": "Some of the results follow. Only hits are listed; about a third recur on repeated control peptides.", "data": [{"binder": "ANSMQLTLTLNTLQL", "note": "[DANCR]", "values": [{"measurement": "PRISMA enrichment of interactor (log2)", "setting": "C2CD3, Q4AC94", "value": 5.34}, {"measurement": "PRISMA enrichment of interactor (log2)", "setting": "CCAR1, Q8IX12", "value": 4.96}, {"measurement": "PRISMA enrichment of interactor (log2)", "setting": "CFAP36, Q96G28", "value": 6.49}, {"measurement": "PRISMA enrichment of interactor (log2)", "setting": "CNN3, Q15417", "value": 5.49}, {"measurement": "PRISMA enrichment of interactor (log2)", "setting": "COG5, Q9UP83", "value": 4.38}, {"measurement": "PRISMA enrichment of interactor (log2)", "setting": "DNAJB11, Q9UBS4", "value": 4.32}, {"measurement": "PRISMA enrichment of interactor (log2)", "setting": "GTF2I, P78347", "value": 4.54}, {"measurement": "PRISMA enrichment of interactor (log2)", "setting": "HNRNPH2, P55795", "value": 4.51}, {"measurement": "PRISMA enrichment of interactor (log2)", "setting": "NUP62, P37198", "value": 4.08}, {"measurement": "PRISMA enrichment of interactor (log2)", "setting": "PCBP2, Q15366", "value": 5.73}, {"measurement": "PRISMA enrichment of interactor (log2)", "setting": "PTBP3, O95758", "value": 4.18}, {"measurement": "PRISMA enrichment of interactor (log2)", "setting": "RAB7A, P51149", "value": 5.61}, {"measurement": "PRISMA enrichment of interactor (log2)", "setting": "SDF2L1, Q9HCN8", "value": 4.12}, {"measurement": "PRISMA enrichment of interactor (log2)", "setting": "SUGT1, Q9Y2Z0", "value": 3.6}]}, {"binder": "EPVSLTACPRLLQPL", "note": "[ABR]", "values": [{"measurement": "PRISMA enrichment of interactor (log2)", "setting": "C7orf50, Q9BRJ6", "value": 5.44}, {"measurement": "PRISMA enrichment of interactor (log2)", "setting": "CD81, P60033", "value": 4.25}, {"measurement": "PRISMA enrichment of interactor (log2)", "setting": "CDC20, Q12834", "value": 4.29}, {"measurement": "PRISMA enrichment of interactor (log2)", "setting": "CSTF3, Q12996", "value": 6.08}, {"measurement": "PRISMA enrichment of interactor (log2)", "setting": "DHX15, O43143", "value": 5.81}, {"measurement": "PRISMA enrichment of interactor (log2)", "setting": "EIF3M, Q7L2H7", "value": 4.62}, {"measurement": "PRISMA enrichment of interactor (log2)", "setting": "EIF4B, P23588", "value": 7.01}, {"measurement": "PRISMA enrichment of interactor (log2)", "setting": "EXOC4, Q96A65", "value": 4.18}, {"measurement": "PRISMA enrichment of interactor (log2)", "setting": "GOT2, P00505", "value": 4.54}, {"measurement": "PRISMA enrichment of interactor (log2)", "setting": "INTS7, Q9NVH2", "value": 7.64}, {"measurement": "PRISMA enrichment of interactor (log2)", "setting": "MRM2, Q9UI43", "value": 3.84}, {"measurement": "PRISMA enrichment of interactor (log2)", "setting": "MRPL16, Q9NX20", "value": 4.3}, {"measurement": "PRISMA enrichment of interactor (log2)", "setting": "MYO6, Q9UM54", "value": 4.68}, {"measurement": "PRISMA enrichment of interactor (log2)", "setting": "NAP1L1, P55209", "value": 5.92}, {"measurement": "PRISMA enrichment of interactor (log2)", "setting": "NUDT21, O43809", "value": 4.13}, {"measurement": "PRISMA enrichment of interactor (log2)", "setting": "PGAM1, P18669", "value": 4.58}, {"measurement": "PRISMA enrichment of interactor (log2)", "setting": "RADX, Q6NSI4", "value": 3.65}, {"measurement": "PRISMA enrichment of interactor (log2)", "setting": "S100A13, Q99584", "value": 5.82}, {"measurement": "PRISMA enrichment of interactor (log2)", "setting": "SREK1, Q8WXA9", "value": 6.79}, {"measurement": "PRISMA enrichment of interactor (log2)", "setting": "WDR12, Q9GZL7", "value": 4.04}, {"measurement": "PRISMA enrichment of interactor (log2)", "setting": "YIF1A, O95070", "value": 4.18}]}, {"binder": "FTVIFSGLGNNAGGT", "note": "[PVT1]", "values": [{"measurement": "PRISMA enrichment of interactor (log2)", "setting": "C7orf50, Q9BRJ6", "value": 5.83}, {"measurement": "PRISMA enrichment of interactor (log2)", "setting": "GSPT2, Q8IYD1", "value": 5.71}, {"measurement": "PRISMA enrichment of interactor (log2)", "setting": "MRPL22, Q9NWU5", "value": 5.15}, {"measurement": "PRISMA enrichment of interactor (log2)", "setting": "NCAPH, Q15003", "value": 6.1}, {"measurement": "PRISMA enrichment of interactor (log2)", "setting": "NUTF2, P61970", "value": 4.45}, {"measurement": "PRISMA enrichment of interactor (log2)", "setting": "PRPF4, O43172", "value": 5.85}, {"measurement": "PRISMA enrichment of interactor (log2)", "setting": "SRPRA, P08240", "value": 5.15}, {"measurement": "PRISMA enrichment of interactor (log2)", "setting": "UBE2I, P63279", "value": 4.67}]}]}
